Results deposited as PubChem BioAssay AID1508597 (Cure First, 2020)
Purpose: 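Knock-downs altering ovarian cancer cell survival with or without PARP inhibitor rucaparib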 (primary screen). Cell system: human ovarian carcinoma lines grown from tumours: OCI-P5x (papillary serous) and OCI-C5x (clear cell). Reagents: siRNA pool against human genes, 1.25 pmol siRNA per well. Timing: 72 h or 96 h, depending on the cell culture. Challenge: rucaparib 20 µM (about IC30) or vehicle, present until read-out. Rucaparib or vehicle: Vehicle. Cell line: OCI-C5x (clear cell). Measured: 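ATP luminescence measured at 72 or 96 h according to the culture, then normalised and expressed as percent viability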. Direction: viability, normalised: higher = more viable cells remaining. Rule for the call: 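a well counts as a hit if its normalised viability is under 80 percent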. Meaning of the calls: active = viability under 80%; inactive = viability 80% or more.
Shown is a random part of the about 2,100 reagents, in one setting of the screen. 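Calls flag viability under 80% in either arm, not effects specific to rucaparib; the reference for percent is not stated.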 A number with no mark means an inactive call. The record does not give: the 100% reference.

CLDN10 (claudin 10), technical replicate 1 → viability, normalised (%) = 24.9 (active)
CLDN10 (claudin 10), technical replicate 2 → viability, normalised (%) = 50.8 (active)
CLDN10 (claudin 10), technical replicate 3 → viability, normalised (%) = 41.9 (active)
XPC, technical replicate 1 → viability, normalised (%) = 66.5 (active)
XPC, technical replicate 2 → viability, normalised (%) = 69.2 (active)
XPC, technical replicate 3 → viability, normalised (%) = 48.8 (active)
NAP1L5 (nucleosome assembly protein 1 like 5), technical replicate 1 → viability, normalised (%) = 29.4 (active)
NAP1L5 (nucleosome assembly protein 1 like 5), technical replicate 2 → viability, normalised (%) = 34 (active)
NAP1L5 (nucleosome assembly protein 1 like 5), technical replicate 3 → viability, normalised (%) = 40.7 (active)
KDM2A (lysine demethylase 2A), technical replicate 1 → viability, normalised (%) = 50.7 (active)
KDM2A (lysine demethylase 2A), technical replicate 2 → viability, normalised (%) = 57.7 (active)
KDM2A (lysine demethylase 2A), technical replicate 3 → viability, normalised (%) = 60.6 (active)
TRMT112 (tRNA methyltransferase activator subunit 11-2), technical replicate 1 → viability, normalised (%) = 68.6 (active)
TRMT112 (tRNA methyltransferase activator subunit 11-2), technical replicate 2 → viability, normalised (%) = 72.1 (active)
TRMT112 (tRNA methyltransferase activator subunit 11-2), technical replicate 3 → viability, normalised (%) = 80.6
KDR (kinase insert domain receptor), technical replicate 1 → viability, normalised (%) = 41.4 (active)
KDR (kinase insert domain receptor), technical replicate 2 → viability, normalised (%) = 41.1 (active)
KDR (kinase insert domain receptor), technical replicate 3 → viability, normalised (%) = 32.4 (active)
WHR1 (winged helix repair factor 1), technical replicate 1 → viability, normalised (%) = 44.7 (active)
WHR1 (winged helix repair factor 1), technical replicate 2 → viability, normalised (%) = 43 (active)
WHR1 (winged helix repair factor 1), technical replicate 3 → viability, normalised (%) = 41.9 (active)
